Publication PMC11294583
Results are given in words; binding and its absence hold for the method and conditions named. In cells and extracts the contact can be indirect. Here binding means that the protein was enriched with, or labelled near, the bait; the list need not be complete. Tags and fused reporters may be left off the sequences shown.

T1: Ume6 tagged at the carboxy-terminus with TurboID (TurboID-3xMyc) (Saccharomyces cerevisiae) (UniProt P39001)
T1 sequence: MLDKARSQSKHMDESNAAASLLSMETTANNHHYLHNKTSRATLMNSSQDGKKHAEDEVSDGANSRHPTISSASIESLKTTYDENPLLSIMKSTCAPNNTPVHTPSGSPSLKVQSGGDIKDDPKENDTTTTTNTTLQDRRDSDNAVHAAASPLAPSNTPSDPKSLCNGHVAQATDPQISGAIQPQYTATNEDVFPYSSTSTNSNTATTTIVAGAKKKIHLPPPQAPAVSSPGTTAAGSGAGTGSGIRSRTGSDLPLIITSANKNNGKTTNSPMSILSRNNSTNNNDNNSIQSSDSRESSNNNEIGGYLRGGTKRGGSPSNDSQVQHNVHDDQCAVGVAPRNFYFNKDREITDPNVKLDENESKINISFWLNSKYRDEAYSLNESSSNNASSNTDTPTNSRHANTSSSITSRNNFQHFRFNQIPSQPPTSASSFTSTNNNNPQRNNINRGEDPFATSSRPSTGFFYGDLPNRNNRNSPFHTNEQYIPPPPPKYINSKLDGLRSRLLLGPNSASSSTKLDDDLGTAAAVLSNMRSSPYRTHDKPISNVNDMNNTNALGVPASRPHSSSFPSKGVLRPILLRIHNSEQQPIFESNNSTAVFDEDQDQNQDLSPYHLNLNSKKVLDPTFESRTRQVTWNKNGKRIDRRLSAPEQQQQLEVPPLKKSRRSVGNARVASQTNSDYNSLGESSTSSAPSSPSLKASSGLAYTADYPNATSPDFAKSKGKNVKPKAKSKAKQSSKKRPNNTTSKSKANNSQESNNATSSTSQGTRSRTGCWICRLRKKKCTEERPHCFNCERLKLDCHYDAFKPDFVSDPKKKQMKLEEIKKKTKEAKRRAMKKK

B1: Ies4 (protein, UniProt Q08561 1-116)
chain: MSQESSVLSESQEQLANNPKIEDTSPPSANSRDNSKPVLPWDYKNKAIEIKSFSGYKVNFTGWIRRDVREERQRGSEFTASDVKGSDDKATRKKEPADEDPEVKQLEKEGEDGLDS
B2: Spt15 (protein, UniProt P13393 1-240)
chain: MADEERLKEFKEANKIVFDPNTRQVWENQNRDGTKPATTFQSEEDIKRAAPESEKDTSATSGIVPTLQNIVATVTLGCRLDLKTVALHARNAEYNPKRFAAVIMRIREPKTTALIFASGKMVVTGAKSEDDSKLASRKYARIIQKIGFAAKFTDFKIQNIVGSCDVKFPIRLEGLAFSHGTFSSYEPELFPGLIYRMVKPKIVLLIFVSGKIVLTGAKQREEIYQAFEAIYPVLSEFRKM
B3: Ies1 (protein, UniProt P43579 1-692)
chain: MGKRVYDPIHDTFQLREDNSDETKADSPMQSVKSGSQEEASPSSIQSETETVTTKSIPVIHEIEIDDKNDDDSTQSEEENTNILLNFEPSTVPEATGASTATGPVTTNTVRRKPKESNASKYNRHLKKPDGEPFNRKDIQFSFMQELLMDKRQIFTNVLKPLYKNSIVPINIDGDKLSINVTDKEYDARTFVFNDKLTFAQLYVLTIATSIKCSKILRDKLLLDQQVAFSTCVLALLVNIGRLNTTINFYLEMTSQLRTFHSVPVLQLHANDPKLLQDTPRLKSILKNLPWGNEQLSLMETYKKVDQNDGEVDTVNKFNIINMLFSICDNSGLIDKRFLSKYVEVESKAQEQDMVDEQNEVKETEAENEKQESKAAYATTLFDILDYSKYEPKDRSNILIWLLYIHLETNLSQEEVEESVRFFNGLEDGAPAGKFILRCTERSYDTDPEDELEFGANQRIKRREFMSKMEEGRKRERTNVTEVKKPSIGGDKSEEDGEGEDDKSEETVEETRSLLTPTPILESSSPMTLNRKKVTPQLPKVTPAAPTETEEEITSAAIIDKNDLNLTPLKKYNSSATVNKVDKLISLDLNKHVSENGKTQEEFLADLKKSQVPNRLKRRDIGLIKIFNEFEDIPVASVLGIRGKKRKKFKDNLLGFETDFMKNLGASKKVLLNKIERAEIDDEEATAMFKLE
B4: Spt5 (protein, UniProt P27692 1-1063)
chain: MSDNSDTNVSMQDHDQQFADPVVVPQSTDTKDENTSDKDTVDSGNVTTTESTERAESTSNIPPLDGEEKEAKSEPQQPEDNAETAATEQVSSSNGPATDDAQATLNTDSSEANEIVKKEEGSDERKRPREEDTKNSDGDTKDEGDNKDEDDDEDDDDDDDDEDDDDEAPTKRRRQERNRFLDIEAEVSDDEDEDEDEEDSELVREGFITHGDDEDDEASAPGARRDDRLHRQLDQDLNKTSEEDAQRLAKELRERYGRSSSKQYRAAAQDGYVPQRFLLPSVDTATIWGVRCRPGKEKELIRKLLKKKFNLDRAMGKKKLKILSIFQRDNYTGRIYIEAPKQSVIEKFCNGVPDIYISQKLLIPVQELPLLLKPNKSDDVALEEGSYVRIKRGIYKGDLAMVDQISENNLEVMLKIVPRLDYGKFDEIDPTTQQRKSRRPTFAHRAPPQLFNPTMALRLDQANLYKRDDRHFTYKNEDYIDGYLYKSFRIQHVETKNIQPTVEELARFGSKEGAVDLTSVSQSIKKAQAAKVTFQPGDRIEVLNGEQRGSKGIVTRTTKDIATIKLNGFTTPLEFPISTLRKIFEPGDHVTVINGEHQGDAGLVLMVEQGQVTFMSTQTSREVTITANNLSKSIDTTATSSEYALHDIVELSAKNVACIIQAGHDIFKVIDETGKVSTITKGSILSKINTARARVSSVDANGNEIKIGDTIVEKVGSRREGQVLYIQTQQIFVVSKKIVENAGVFVVNPSNVEAVASKDNMLSNKMDLSKMNPEIISKMGPPSSKTFQQPIQSRGGREVALGKTVRIRSAGYKGQLGIVKDVNGDKATVELHSKNKHITIDKHKLTYYNREGGEGITYDELVNRRGRVPQARMGPSYVSAPRNMATGGIAAGAAATSSGLSGGMTPGWSSFDGGKTPAVNAHGGSGGGGVSSWGGASTWGGQGNGGASAWGGAGGGASAWGGQGTGATSTWGGASAWGNKSSWGGASTWASGGESNGAMSTWGGTGDRSAYGGASTWGGNNNNKSTRDGGASAWGNQDDGNRSAWNNQGNKSNYGGNSTWGGH
B5: Toa1 (protein, UniProt P32773 1-286)
chain: MSNAEASRVYEIIVESVVNEVREDFENAGIDEQTLQDLKNIWQKKLTETKVTTFSWDNQFNEGNINGVQNDLNFNLATPGVNSSEFNIKEENTGNEGLILPNINSNNNIPHSGETNINTNTVEATNNSGATLNTNTSGNTNADVTSQPKIEVKPEIELTINNANITTVENIDDESEKKDDEEKEEDVEKTRKEKEQIEQVKLQAKKEKRSALLDTDEVGSELDDSDDDYLISEGEEDGPDENLMLCLYDKVTRTKARWKCSLKDGVVTINRNDYTFQKAQVEAEWV

These binders were tested against T1, Ume6 tagged at the carboxy-terminus with TurboID (TurboID-3xMyc) (Saccharomyces cerevisiae) (assay: proximity labelling; Ume6 with C-terminal TurboID-3xMyc in living diploid SK1 cells with 50 μM biotin; rich medium (YPD, exponential) or 4 h in SPO; WT, ime1Δ and rim11Δ cells; denatured extracts, streptavidin M280 beads, on-bead trypsin digestion, label-free LC-MS/MS; enrichment against an untagged control).

binding, binds:
B1
B2
B3
B4
B5
